Results deposited as PubChem BioAssay AID1159578 (Peter MacCallum Cancer Centre, 2015)
Screen: 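Knock-downs that alter how fast lymphatic endothelial cells migrate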 (primary screen). Cells: human lymphatic endothelial cells. Reagents: siRNA pool against human genes, 40 nM. Time to read-out: 48 h after transfection. Read-out: 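Cells stained with dye and imaged after a scratch; covered wound area and nuclei counted, duplicates averaged, migration set against mock wells and turned into a robust z-score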. Reading the numbers: migration robust z-score: higher = faster migration into the scratch; nuclei per well: higher = more cells in the well. Rule for the call: 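Migration changed when robust z exceeds 2 or falls below -2 and mean nuclei number is at least 3300; otherwise not called changed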. Meaning of the calls: active = migration changed; inactive = no migration change, or too few cells.
Shown is a random part of about 18,000 reagents tested. Of all reagents, about 1,030 (5.7%) were called active. 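Inactive calls also include pools with fewer than 3300 nuclei, whose migration was not assessed.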 Raw values vary from plate to plate and are shown uncorrected. Further read-outs or replicates are left out here.

{"gene": "PALD1 (phosphatase domain containing paladin 1)", "migration robust z-score": 0.83, "nuclei per well, duplicate mean": 4486, "Call": "inactive"}
{"gene": "RAB5C (RAB5C, member RAS oncogene family)", "migration robust z-score": -0.52, "nuclei per well, duplicate mean": 6016, "Call": "inactive"}
{"gene": "LDHA (lactate dehydrogenase A)", "migration robust z-score": -1.01, "nuclei per well, duplicate mean": 5170, "Call": "inactive"}
{"gene": "BUB1 (BUB1 mitotic checkpoint serine/threonine kinase)", "migration robust z-score": -0.16, "nuclei per well, duplicate mean": 4766, "Call": "inactive"}
{"gene": "RASSF3 (Ras association domain family member 3)", "migration robust z-score": 0.28, "nuclei per well, duplicate mean": 6026, "Call": "inactive"}
{"gene": "BLMH (bleomycin hydrolase)", "migration robust z-score": -0.08, "nuclei per well, duplicate mean": 5360, "Call": "inactive"}
{"gene": "ENC1 (ectodermal-neural cortex 1)", "migration robust z-score": 0.49, "nuclei per well, duplicate mean": 4546, "Call": "inactive"}
{"gene": "ITGA7 (integrin subunit alpha 7)", "migration robust z-score": -0.8, "nuclei per well, duplicate mean": 5876, "Call": "inactive"}
{"gene": "KLHDC4 (kelch domain containing 4)", "migration robust z-score": -2.67, "nuclei per well, duplicate mean": 6947, "Call": "active"}
{"gene": "RSBN1L (round spermatid basic protein 1 like)", "migration robust z-score": 0.38, "nuclei per well, duplicate mean": 5847, "Call": "inactive"}
{"gene": "CYP39A1 (cytochrome P450 family 39 subfamily A member 1)", "migration robust z-score": -1.04, "nuclei per well, duplicate mean": 5146, "Call": "inactive"}
{"gene": "PGAP6 (post-GPI attachment to proteins 6)", "migration robust z-score": -1.15, "nuclei per well, duplicate mean": 6864, "Call": "inactive"}
{"gene": "GRPEL1 (GrpE like 1, mitochondrial)", "migration robust z-score": -0.42, "nuclei per well, duplicate mean": 5670, "Call": "inactive"}
{"gene": "OR1E2 (olfactory receptor family 1 subfamily E member 2)", "migration robust z-score": 0.18, "nuclei per well, duplicate mean": 5620, "Call": "inactive"}
{"gene": "MTOR (mechanistic target of rapamycin kinase)", "migration robust z-score": -1.48, "nuclei per well, duplicate mean": 4758, "Call": "inactive"}
{"gene": "SLC17A3", "migration robust z-score": 0.23, "nuclei per well, duplicate mean": 5180, "Call": "inactive"}
{"gene": "TMEM100 (transmembrane protein 100)", "migration robust z-score": -0.77, "nuclei per well, duplicate mean": 4975, "Call": "inactive"}
{"gene": "AICDA (activation induced cytidine deaminase)", "migration robust z-score": -0.88, "nuclei per well, duplicate mean": 5549, "Call": "inactive"}
{"gene": "C1QA (complement C1q A chain)", "migration robust z-score": -3.49, "nuclei per well, duplicate mean": 3243, "Call": "inactive"}
{"gene": "FOXD4L6 (forkhead box D4 like 6)", "migration robust z-score": 0.21, "nuclei per well, duplicate mean": 5970, "Call": "inactive"}
{"gene": "TIMP3 (TIMP metallopeptidase inhibitor 3)", "migration robust z-score": 0.34, "nuclei per well, duplicate mean": 5629, "Call": "inactive"}

Active calls, among the entries above:
{"gene": "KLHDC4 (kelch domain containing 4)", "migration robust z-score": -2.67, "nuclei per well, duplicate mean": 6947, "Call": "active"}
